Experimental data from PMC5720831.
No constants are given. Whether binding was seen depends on the method and setting. Binding calls can cover weak binding; strength is not graded here. Where a sequence is shown, tags or fusion partners need not be part of it.

T1: Mtb DnaA-HA, purified recombinant (Mycobacterium tuberculosis) (UniProt P9WNW3)
T1 sequence: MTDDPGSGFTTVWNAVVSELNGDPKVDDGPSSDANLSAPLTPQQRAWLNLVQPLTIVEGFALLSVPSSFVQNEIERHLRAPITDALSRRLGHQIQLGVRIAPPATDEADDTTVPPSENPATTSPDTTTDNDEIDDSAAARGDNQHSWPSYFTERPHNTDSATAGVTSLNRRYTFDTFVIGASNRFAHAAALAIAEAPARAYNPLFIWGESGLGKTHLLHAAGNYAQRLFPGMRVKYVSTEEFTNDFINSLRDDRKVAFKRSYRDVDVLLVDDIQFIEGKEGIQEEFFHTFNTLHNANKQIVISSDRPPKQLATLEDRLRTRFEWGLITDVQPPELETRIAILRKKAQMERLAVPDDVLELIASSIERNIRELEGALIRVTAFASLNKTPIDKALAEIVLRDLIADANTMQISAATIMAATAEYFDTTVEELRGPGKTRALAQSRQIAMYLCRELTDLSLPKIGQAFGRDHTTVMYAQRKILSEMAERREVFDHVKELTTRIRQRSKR

B1: Mtb DnaA-HA, purified recombinant (protein, UniProt P9WNW3 1-507)
chain: T1 sequence

Experiments:
[1] = target: T1, Mtb DnaA-HA, purified recombinant (Mycobacterium tuberculosis); test: pull-down; both purified
[2] = target: Mtb DnaB-FLAG, purified recombinant (Mycobacterium tuberculosis); test: pull-down; both purified

Molecule | binding [1] | binding [2]
Mtb DnaB-FLAG, purified recombinant (Mycobacterium tuberculosis) (enzyme) | binds | –
B1 | – | binds
